Reference: PubChem BioAssay AID602313 (National Center for Advancing Translational Sciences (NCATS), 2012)
Screen size: about 390,000 compounds; about 760 (0.19%) were called active. Inconclusive results, whose numbers are uncertain, are shown with a selection of clear calls. Calls come from the whole dose curve; as a rule, active = well fitted inhibition curve with a large enough effect; inconclusive = small, poorly fitted or top-dose-only effect; inactive = flat fitted curve, though single readings scatter. Where the call is inconclusive, the potency comes from a doubtful curve fit.

Test: qHTS for Inhibitors of Vif-A3F Interactions: qHTS; note: nearly all actives have a fitted effect of over 65% in size
Details: HeLa A3F-eYFP + Vif (tagged APOBEC3F with the HIV-1 protein that degrades it), YFP fluorescence increase; series mostly up to 46.1 µM
Outline: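 HeLa cells stably expressing Vif plus C-terminally eYFP-tagged A3F were seeded, incubated overnight at 37 deg C, dosed with compound, incubated overnight again at 37 deg C. Yellow fluorescence (Ex 488/Em 500-530) reported blocked Vif-mediated A3F-eYFP degradation.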
Potency is the fitted concentration of half-maximal effect.

Compound | Potency
CC(C)N1CCc2c(sc(NC(=O)c3cc(-c4cccs4)nc4ccccc34)c2C(N)=O)C1 | inconclusive: 3.16 µM [inhibitor, partial curve, poor fit]
COC(=O)C1=C(C)N(c2ccccc2)C(=S)NC1c1ccccc1C(F)(F)F (centres undefined) | inactive
C(=C\c1nc(N2CCCCCC2)c2ccccc2n1)/c1ccccc1 | inconclusive: 15.8 µM [inhibitor, single point]
COc1ccc(-c2ccc(CCC(=O)O)n2-c2ccccc2OC)cc1 | inactive
O=C(Nc1nc2ccc(F)cc2s1)c1nc(S(=O)(=O)Cc2ccccc2)ncc1Cl | inactive
COc1ccc2sc(N(CCCN(C)C)C(=O)c3ccc(S(=O)(=O)N(C)C4CCCCC4)cc3)nc2c1 | inconclusive: 6.31 µM [inhibitor, single point]
Cc1cccc(N=Cc2[nH]c3ccc(Br)c(Cl)c3c2O)c1 | inconclusive: 35.5 µM [inhibitor, single point]
CC(C)(C)OC(=O)NCCc1nnc(S(=O)(=O)Cc2ccc(Cl)cc2Cl)o1 | inactive
Cc1cc[n+](-c2[nH]c(=O)sc2/C=N/NC([S-])=Nc2ccccc2)cc1C | inconclusive: 7.94 µM [inhibitor, partial curve, poor fit]
O=C(COC(=O)c1ccc2ncsc2c1)NCc1ccc(F)cc1 | inconclusive: 0.562 µM [inhibitor, full curve, poor fit]
O=C(/C=C(/c1ccc(Cl)cc1)n1cncn1)c1ccccc1 | inconclusive: 35.5 µM [inhibitor, single point]
CCOc1nc(-c2ccccc2)ccc1-c1noc(COC)n1 | inconclusive: 3.55 µM [inhibitor, single point]
COc1cccc(N2C(=O)CC(c3c[nH]c4ccccc34)C2=O)c1 (centres undefined) | inactive
CCN(c1ccccc1)S(=O)(=O)c1ccc(OC)c(NC(=O)COc2ccc(C(C)=O)cc2)c1 | inconclusive: 14.1 µM [inhibitor, single point]
O=C(Nc1ccc(OC(F)F)c(Cl)c1)c1cccc(OC(F)F)c1 | inactive
O=C(Cc1ccccc1)NNC(=O)c1ccc(NC(=O)c2ccccc2)cc1 | inactive
COc1cc(Br)c(/C=C(\C#N)c2nc3ccccc3[nH]2)cc1OC | active: 25.1 µM
O=C1/C(=C/c2ccc(O)cc2)SC(=S)N1Cc1cccnc1 | inconclusive: 2.51 µM [inhibitor, full curve, poor fit]
Cc1c(N2C(=O)/C(=C/c3ccc(N(C)C)cc3)N(C)C2=S)c(=O)n(-c2ccccc2)n1C | active: 10 µM
O=C1c2ccccc2C2=Nc3ccccc3SC(c3ccc(Cl)cc3)C12 (centres undefined) | inactive
O=C(Nc1ccc(F)cc1)[C@H](CSCc1ccccc1)N1Cc2ccccc2C1=O | inactive
C=CCN1C(=O)CS/C1=C(\C#N)S(=O)(=O)c1ccc(C)cc1 | inconclusive: 22.4 µM [inhibitor, single point]

Compound | Potency
Cc1ccc2nc(NC(=O)C3CCCN3C(=O)OC(C)(C)C)sc2c1 (centres undefined) | inconclusive: 11.2 µM [inhibitor, single point]
CS(=O)(=O)Nc1ccc(C2=NN(C(=O)c3ccco3)C(c3ccccc3F)C2)cc1 (centres undefined) | inactive
COc1cc(/C=C2/C(=O)ON=C2C)cc(Cl)c1O | inconclusive: 35.5 µM [inhibitor, single point]
CCc1ccc2oc(-c3cccc(NC(=O)c4ccc(N5CCC(C)CC5)c([N+](=O)[O-])c4)c3)nc2c1 | inconclusive: 20 µM [inhibitor, partial curve, poor fit]
CNC(=O)OCc1nc(SSC(C)(C)C)n(C)c1COC(=O)NC | inconclusive: 6.31 µM [inhibitor, single point]
CN(Cc1ccc(Cl)c(Cl)c1)C(=O)c1ccccc1SCC(=O)N1CCCC1 | inactive
CCCC(=O)Nc1nnc(-c2ccc(Cl)s2)o1 | inconclusive: 35.5 µM [inhibitor, single point]
CCOC(=O)c1c(N)sc2c1CCS(=O)(=O)C2 | inactive
CCN(CC)CCNC(=O)c1ccc(NC(=O)Nc2cccc3ccccc23)cc1 | inconclusive: 3.55 µM [inhibitor, full curve, poor fit]
Nc1cc(Cc2ccccc2)ccc1O | inactive
CC(Oc1ccccc1)C(=O)Nc1oc(-c2ccco2)c(-c2ccco2)c1C#N (centres undefined) | inconclusive: 7.08 µM [inhibitor, partial curve, poor fit]
COc1ccc2cc(CCNC(=O)c3ccc(S(=O)(=O)N4CCOCC4)cc3)c(=O)[nH]c2c1 | inconclusive: 6.31 µM [inhibitor, single point]
CC(=O)N(C(C)=O)c1c(C#N)c(C)n(-c2ccccc2)c1C(=O)c1ccccc1 | inactive
CCC1CCCCN1C(=O)COC(=O)CN(C)S(=O)(=O)c1ccc(NC(C)=O)cc1 (centres undefined) | inconclusive: 35.5 µM [inhibitor, single point]
CSc1nsc2nc(=O)c(/C=C3\C(C)=Nc4ccc(C)cc43)c(N)n12 | inconclusive: 25.1 µM [inhibitor, single point]
CCOc1ccc(-n2cc(C(=O)Nc3ccc(Cl)cn3)c3cc(OC)c(OC)cc3c2=O)cc1 | inconclusive: 5.62 µM [inhibitor, single point]
O=C(c1ccc(OCCN2CCCCC2)cc1)c1c(-c2ccc(O)cc2)sc2cc(O)ccc12 | inconclusive: 35.5 µM [inhibitor, single point]
COc1ccc(OC)c(NC(=O)c2cnc(Nc3ccccc3OC)c3ccccc23)c1 | inconclusive: 5.62 µM [inhibitor, single point]
CCOC(=O)c1sc2nc(-c3ccco3)c3c(c2c1N)CC(C)(C)OC3 | inconclusive: 22.4 µM [inhibitor, single point]
COc1ccc(NC(=O)C2CC2)cc1S(=O)(=O)N1CCOCC1 | inactive
COc1ccccc1-c1ccc(/C=C2\C=CC(=O)O2)o1 | inconclusive: 22.4 µM [inhibitor, partial curve, poor fit]
CC(C)NC(=O)CCCn1cc([N+](=O)[O-])cn1 | inconclusive: 35.5 µM [inhibitor, single point]

Rewritten as tab-separated lines: 4 of the compounds above.
Compound	Potency
COc1cc(/C=C2/C(=O)ON=C2C)cc(Cl)c1O	inconclusive: 35.5 µM [inhibitor, single point]
CCOC(=O)c1c(N)sc2c1CCS(=O)(=O)C2	inactive
CCC1CCCCN1C(=O)COC(=O)CN(C)S(=O)(=O)c1ccc(NC(C)=O)cc1 (centres undefined)	inconclusive: 35.5 µM [inhibitor, single point]
CCOC(=O)c1sc2nc(-c3ccco3)c3c(c2c1N)CC(C)(C)OC3	inconclusive: 22.4 µM [inhibitor, single point]
